The test system of this data set is ovarian cancer tissue samples. In words: Identification of tumor associated peptides presented on the cell surface (HLA immunoprecipitation, LC-MS); presentation across tumor types. Set-up: species or system human. As to conditions: tumor types on which the peptide was found presented (HLA immunoprecipitation, LC-MS); abbreviations in table footnote.
“442 (ILSKLTDIQY; listed as Homo sapiens) [compound 442]”: the “Peptide Presentation on tumor types” value is on record as “BRCA, GBM, NHL, NSCLC”.

Turning to “617 (VAEVQKLLGPHVEGL; listed as Homo sapiens) [compound 617]”, the “Peptide Presentation on tumor types” value was “NSCLC”.

Turning to “423 (SEVPTGTTA; listed as Homo sapiens) [compound 423]”, the “Peptide Presentation on tumor types” value is listed as “GBC, GBM”.

With “695 (RGSLLSEADVRALG; listed as Homo sapiens) [compound 695]”, the “Peptide Presentation on tumor types” value is reported as “NSCLC”.

For the substance “314 (VPDQPHPEI; listed as Homo sapiens) [compound 314]”, the “Peptide Presentation on tumor types” value is given as “PACA”.

For the substance “591 (VRGEVAPDAKSFVLNL; listed as Homo sapiens) [compound 591]”, the “Peptide Presentation on tumor types” value is recorded as “NSCLC, RCC”.

For “661 (LRGLLPVLGQPIIRSIPQG; listed as Homo sapiens) [compound 661]”, the “Peptide Presentation on tumor types” value is “NSCLC”.

Take “24 (SMYYPLQLK; listed as Homo sapiens) [compound 24]”: the “Peptide Presentation on tumor types” value was “BRCA, CRC, GBM, HCC, NHL, RCC”.

Regarding “495 (EVPSGATTEVSR; listed as Homo sapiens) [compound 495]”, the “Peptide Presentation on tumor types” value is recorded as “UEC”.

Turning to “386 (FPFNPLDF; listed as Homo sapiens) [compound 386]”, the “Peptide Presentation on tumor types” value is recorded as “GC, NHL”.

In the case of “694 (GSLLSEADVRALGG; listed as Homo sapiens) [compound 694]”, the “Peptide Presentation on tumor types” value was “NSCLC”.

In the case of “615 (VAEVQKLLGPHVEGLK; listed as Homo sapiens) [compound 615]”, the “Peptide Presentation on tumor types” value is reported as “NSCLC”.

For the substance “498 (EVYPELGTQGR; listed as Homo sapiens) [compound 498]”, the “Peptide Presentation on tumor types” value is “UEC”.

In the case of “619 (VAEVQKLLGPHVE; listed as Homo sapiens) [compound 619]”, the “Peptide Presentation on tumor types” value was “NSCLC”.

Regarding “461 (AQRMTTQLL; listed as Homo sapiens) [compound 461]”, the “Peptide Presentation on tumor types” value is on record as “CRC, MEL, NSCLC, RCC”.

Turning to “243 (YASEGVKQV; listed as Homo sapiens) [compound 243]”, the “Peptide Presentation on tumor types” value is “UEC”.

Regarding “227 (YTFRYPLSL; listed as Homo sapiens) [compound 227]”, the “Peptide Presentation on tumor types” value is on record as “CCC, CRC, GBC, GC, HCC, HNSCC, NSCLC, OSCAR, PACA, SCLC, UBC, UEC”.

As to “271 (RMFADDLHNLNK; listed as Homo sapiens) [compound 271]”, the “Peptide Presentation on tumor types” value is listed as “NSCLC”.

Take “447 (MQVLVSRI; listed as Homo sapiens) [compound 447]”: the “Peptide Presentation on tumor types” value is given as “GC, NSCLC, PACA, PRCA, RCC, SCLC”.

Turning to “29 (QQFLTALFY; listed as Homo sapiens) [compound 29]”, the “Peptide Presentation on tumor types” value was “PACA, PRCA”.

With “252 (LYQPRASEM; listed as Homo sapiens) [compound 252]”, the “Peptide Presentation on tumor types” value is on record as “NHL”.

As to “677 (IWAVRPQDLDTCDPR; listed as Homo sapiens) [compound 677]”, the “Peptide Presentation on tumor types” value was “NSCLC”.

Turning to “65 (TMFLRETSL; listed as Homo sapiens) [compound 65]”, the “Peptide Presentation on tumor types” value was “MEL, NHL, NSCLC, PRCA, SCLC”.

For the substance “493 (DTNLEPVTR; listed as Homo sapiens) [compound 493]”, the “Peptide Presentation on tumor types” value is listed as “UEC”.

For “32 (SPNKGTLSV; listed as Homo sapiens) [compound 32]”, the “Peptide Presentation on tumor types” value is on record as “NSCLC”.

Turning to “378 (RPRSPAGQVAA; listed as Homo sapiens) [compound 378]”, the “Peptide Presentation on tumor types” value was “NHL, PACA, SCLC”.

Regarding “334 (FPYSEVTTL; listed as Homo sapiens) [compound 334]”, the “Peptide Presentation on tumor types” value was “NSCLC, SCLC, UEC”.

Regarding “389 (SPGAQRTFFQL; listed as Homo sapiens) [compound 389]”, the “Peptide Presentation on tumor types” value is reported as “AML, MEL”.

Take “388 (SPAPLKLSRTPA; listed as Homo sapiens) [compound 388]”: the “Peptide Presentation on tumor types” value was “MEL”.

As for “668 (AVLPLTVAEVQK; listed as Homo sapiens) [compound 668]”, the “Peptide Presentation on tumor types” value is listed as “BRCA, CRC, GBC, GC, NSCLC, PACA, UEC”.

“110 (SAAPPSYFR; listed as Homo sapiens) [compound 110]”: the “Peptide Presentation on tumor types” value was “RCC, UEC”.

On to “245 (LAVEGGQSL; listed as Homo sapiens) [compound 245]”, for which the “Peptide Presentation on tumor types” value is on record as “AML, BRCA, CCC, CRC, GBC, GBM, GC, GEJC, HCC, HNSCC, MEL, NHL, NSCLC, OSCAR, PACA, PRCA, RCC, SCLC, UBC, UEC”.

“391 (APSTPRITTF; listed as Homo sapiens) [compound 391]”: the “Peptide Presentation on tumor types” value is “HCC, NHL”.

As for “405 (NEIWTHSY; listed as Homo sapiens) [compound 405]”, the “Peptide Presentation on tumor types” value is recorded as “NSCLC, UEC”.

As for “85 (VLLGSLFSRK; listed as Homo sapiens) [compound 85]”, the “Peptide Presentation on tumor types” value is on record as “AML, CRC, HCC, MEL, NHL, NSCLC, RCC, UEC”.

On to “462 (QRMTTQLLL; listed as Homo sapiens) [compound 462]”, for which the “Peptide Presentation on tumor types” value is “NSCLC, RCC, UEC”.

Turning to “38 (SPHPVTALLTL; listed as Homo sapiens) [compound 38]”, the “Peptide Presentation on tumor types” value was “PACA, UEC”.

With “653 (LPVLGQPIIRSIPQGIVA; listed as Homo sapiens) [compound 653]”, the “Peptide Presentation on tumor types” value was “NSCLC”.

Take “451 (DYLNEWGSRF; listed as Homo sapiens) [compound 451]”: the “Peptide Presentation on tumor types” value was “NSCLC, OSCAR, UEC”.

As to “537 (IRRLKELKDQ; listed as Homo sapiens) [compound 537]”, the “Peptide Presentation on tumor types” value is reported as “NSCLC”.

Take “616 (TVAEVQKLLGPHVEG; listed as Homo sapiens) [compound 616]”: the “Peptide Presentation on tumor types” value is reported as “NSCLC”.

On to “646 (GLLPVLGQPIIRSIPQGIVAAWRQ; listed as Homo sapiens) [compound 646]”, for which the “Peptide Presentation on tumor types” value is on record as “NSCLC”.

As for “479 (TEGSHFVEA; listed as Homo sapiens) [compound 479]”, the “Peptide Presentation on tumor types” value is “BRCA, SCLC, UEC”.

For the substance “547 (EVNKPGVYTR; listed as Homo sapiens) [compound 547]”, the “Peptide Presentation on tumor types” value is “HCC, UEC”.

Turning to “148 (KPYGGSGPL; listed as Homo sapiens) [compound 148]”, the “Peptide Presentation on tumor types” value is reported as “AML, BRCA, NHL, RCC”.

With “264 (AIKVIPTVFK; listed as Homo sapiens) [compound 264]”, the “Peptide Presentation on tumor types” value was “HNSCC, MEL, NSCLC, RCC, UEC”.

For “610 (LTVAEVQKLLGPHVEGLK; listed as Homo sapiens) [compound 610]”, the “Peptide Presentation on tumor types” value was “NSCLC”.

Regarding “280 (SVSGVKTTF; listed as Homo sapiens) [compound 280]”, the “Peptide Presentation on tumor types” value is reported as “HCC, UEC”.

For the substance “448 (LSQKGYSW; listed as Homo sapiens) [compound 448]”, the “Peptide Presentation on tumor types” value is listed as “NHL, NSCLC, UBC”.

On to “404 (NEAIMHQY; listed as Homo sapiens) [compound 404]”, for which the “Peptide Presentation on tumor types” value is on record as “BRCA, CCC, CLL, CRC, GBC, GC, HCC, MEL, NHL, NSCLC, OSCAR, SCLC, UBC, UEC”.

Regarding “324 (VPYRVVGL; listed as Homo sapiens) [compound 324]”, the “Peptide Presentation on tumor types” value was “CLL, CRC, GC, MEL, NHL, NSCLC, PRCA, SCLC”.

“431 (AEQDPDELNKA; listed as Homo sapiens) [compound 431]”: the “Peptide Presentation on tumor types” value is listed as “CRC, OSCAR, SCLC, UEC”.

Consider “385 (SPALHIGSV; listed as Homo sapiens) [compound 385]”, for which the “Peptide Presentation on tumor types” value is “BRCA, GBM, HCC, NSCLC, PRCA, SCLC, UBC, UEC”.

With “654 (PVLGQPIIRSIPQGIVA; listed as Homo sapiens) [compound 654]”, the “Peptide Presentation on tumor types” value is given as “GC, NSCLC”.

“60 (GLLSLTSTLYL; listed as Homo sapiens) [compound 60]”: the “Peptide Presentation on tumor types” value is listed as “BRCA”.

For “333 (FPHSEMTTVM; listed as Homo sapiens) [compound 333]”, the “Peptide Presentation on tumor types” value is “NSCLC, SCLC, UEC”.

“436 (REPGDIFSEL; listed as Homo sapiens) [compound 436]”: the “Peptide Presentation on tumor types” value was “CRC”.

With “614 (TVAEVQKLLGPHVEGL; listed as Homo sapiens) [compound 614]”, the “Peptide Presentation on tumor types” value is “NSCLC”.

With “599 (AESLFREALSNKVDE; listed as Homo sapiens) [compound 599]”, the “Peptide Presentation on tumor types” value is “NSCLC”.

As to “443 (GTFNPVSLW; listed as Homo sapiens) [compound 443]”, the “Peptide Presentation on tumor types” value is recorded as “BRCA, GBC, GBM, HNSCC, MEL, NHL, NSCLC, OSCAR, PACA, SCLC”.

For “437 (TEAVVTNEL; listed as Homo sapiens) [compound 437]”, the “Peptide Presentation on tumor types” value is “CRC, GC, NSCLC, SCLC, UEC”.

Regarding “589 (APDAKSFVLNLGKDSNNL; listed as Homo sapiens) [compound 589]”, the “Peptide Presentation on tumor types” value is on record as “NSCLC”.

Regarding “48 (DVKKKIKEV; listed as Homo sapiens) [compound 48]”, the “Peptide Presentation on tumor types” value was “NSCLC, RCC, SCLC”.

With “481 (GRWEKTDLTY; listed as Homo sapiens) [compound 481]”, the “Peptide Presentation on tumor types” value is reported as “BRCA, GBC, HNSCC, MEL, NSCLC, OSCAR, PACA, SCLC, UBC, UEC”.

As to “612 (TVAEVQKLLGPHVEGLK; listed as Homo sapiens) [compound 612]”, the “Peptide Presentation on tumor types” value is on record as “NSCLC”.

In the case of “656 (VLGQPIIRSIPQGIVA; listed as Homo sapiens) [compound 656]”, the “Peptide Presentation on tumor types” value was “NSCLC”.

In the case of “180 (REAGDEFELRY; listed as Homo sapiens) [compound 180]”, the “Peptide Presentation on tumor types” value is recorded as “CRC, HCC, MEL, NSCLC, OSCAR, PACA, RCC, UEC”.

On to “420 (FESHSTVSA; listed as Homo sapiens) [compound 420]”, for which the “Peptide Presentation on tumor types” value is listed as “UEC”.
